{"source": "PubChem BioAssay AID1347076", "about": "(National Center for Advancing Translational Sciences (NCATS), 2019)", "note": "Out of some 400,000 compounds screened, about 13,000 (3.2%) were called active. This list was built around the results that the source calls inconclusive (neither active nor inactive); the mix of calls is not that of the screen. The call rests on the fitted dose curve; in most records, active means well fitted cell-killing curve with a large enough effect; inconclusive means small, poorly fitted or top-dose-only effect, or effect the other way; inactive means flat fitted curve, though single readings scatter. Where the call is inconclusive, the potency comes from a doubtful curve fit. On the % scale 0 is the no-effect control and ±100 the full control effect; potency means the concentration at half of the fitted maximal effect."}
{"test": "qHTS assay for MDR1-selective chemotherapeutics: Primary screen using the drug-selected MDR subline cells KB-V1; further: nearly all actives have a fitted effect of over 60% in size", "details": "KB-V1 MDR cells viability, CellTiter-Glo, 72 h; activity change, negative = cytotoxicity: at 46.1 µM (top of the series)", "procedure,_shortened": "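KB-V1, DMEM (no phenol red) + 10% FBS; cpd pin-transferred, titration series; 72 h, 37 degrees C; CellTiter-Glo, luminescence. Data normalized, curve-fit.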"}
{"smiles": "CCCCCCC1CC(CC(=O)Nc2ccc([N+](=O)[O-])cc2)C(=O)O1", "note": "(stereo not given)", "activity change, negative = cytotoxicity": "inconclusive: -33.9%"}
{"smiles": "O=C(O)C(Cc1cn[nH]n1)=NO", "activity change, negative = cytotoxicity": "inactive: -2.36%"}
{"smiles": "C/C(=N\\NC(=O)c1ccccc1O)c1ccc(Br)s1", "Potency": "inconclusive: 23.1 µM [cytotoxic, single point]"}
{"smiles": "COc1ccc(C)cc1NC(=O)CSc1ccc(-c2ccco2)nn1", "Potency": "inconclusive: 14.6 µM [cytotoxic, partial curve]"}
{"smiles": "COc1ccc(N2CCN(C(=O)CCCn3nnnc3CN3CCOCC3)C(C)C2)cc1", "note": "(stereo not given)", "Potency": "inconclusive: 29.1 µM [cytotoxic, single point]"}
{"smiles": "CC(=O)c1cc2c(cc1N/C(=N/S(=O)(=O)c1ccc(Cl)cc1)c1ccc(F)cc1)OCO2", "activity change, negative = cytotoxicity": "inactive: -7.64%"}
{"smiles": "CC(C)(C)n1nnnc1C(c1ccc(C(F)(F)F)cc1)N(Cc1ccccc1)Cc1ccco1", "note": "(stereo not given)", "Potency": "inconclusive: 18.4 µM [cytotoxic, partial curve]"}
{"smiles": "CN(c1ccc(C(=O)Nc2nccs2)cc1)S(=O)(=O)c1ccccc1", "Potency": "inconclusive: 11.6 µM [cytotoxic, partial curve]"}
{"smiles": "Cc1noc(C)c1CSCC(=O)Nc1nc2ccc(F)cc2s1", "activity change, negative = cytotoxicity": "inactive: -6.56%"}
{"smiles": "O=C(NCc1ccco1)c1ccc2c(c1)C(=O)c1ccccc1-2", "Potency": "inconclusive: 16.4 µM [cytotoxic, single point]"}
{"smiles": "COc1ccc(C)cc1NC(=O)CSc1nnc(CC(=O)Nc2ccccc2F)n1C", "Potency": "inconclusive: 16.4 µM [cytotoxic, partial curve, poor fit]"}
{"smiles": "Sc1oc(-c2ccccc2)cc1C=Nc1ccccc1", "activity change, negative = cytotoxicity": "inactive: -9.09%"}
{"smiles": "Cc1ccc(C)c(CN2CCCN(Cc3ccc(F)cc3)S2(=O)=O)c1", "activity change, negative = cytotoxicity": "inactive: 3.48%"}
{"smiles": "FC(F)(F)c1cccc(Nc2cc(-c3ccccc3)nc3ncnn23)c1", "Potency": "inconclusive: 23.1 µM [cytotoxic, partial curve, poor fit]"}
{"smiles": "NC(=O)NCC(=O)N1CCN(S(=O)(=O)c2ccc(Cl)s2)CC1", "Potency": "inconclusive: 16.4 µM [rising, single point]"}
{"smiles": "CCOC(=O)N1CCN(c2c(N3CCc4ccccc4C3)c(=O)c2=O)CC1", "activity change, negative = cytotoxicity": "inactive: -6.85%"}
{"smiles": "COC(=O)C[C@H]1c2ccccc2S(=O)(=O)N1c1ccc(N(C)C)cc1", "Potency": "inconclusive: 29.1 µM [cytotoxic, single point]"}
{"smiles": "O=C(OCc1ccccc1Cl)c1ccccc1C(=O)c1ccccc1", "Potency": "inconclusive: 20.6 µM [cytotoxic, single point]"}
{"smiles": "Brc1ccc(Nc2nc(-c3cccnc3)cs2)cc1", "Potency": "inconclusive: 29.1 µM [cytotoxic, single point]"}
{"smiles": "Fc1ccc(N2CCN(C3CCC(c4ccccc4)CC3)CC2)cc1", "note": "(stereo not given)", "activity change, negative = cytotoxicity": "inactive: -0.0008%"}
